Measurements: the supplement of paper PMC10849652
Some of the results follow.

Chains of the proteins cited; added tags and fusions are not shown. Lines headed by an entry give the natural chain unless they say otherwise; changes in a name come on top.
UniProt Q96QR8: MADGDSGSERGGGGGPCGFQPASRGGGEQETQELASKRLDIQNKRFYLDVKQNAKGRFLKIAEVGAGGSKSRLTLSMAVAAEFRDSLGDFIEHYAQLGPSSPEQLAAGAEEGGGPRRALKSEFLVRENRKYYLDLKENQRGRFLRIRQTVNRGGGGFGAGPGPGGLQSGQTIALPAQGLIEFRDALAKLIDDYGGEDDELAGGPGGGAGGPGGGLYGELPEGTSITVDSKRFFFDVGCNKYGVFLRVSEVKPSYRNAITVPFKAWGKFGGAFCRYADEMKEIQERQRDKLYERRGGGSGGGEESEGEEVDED
UniProt P25787: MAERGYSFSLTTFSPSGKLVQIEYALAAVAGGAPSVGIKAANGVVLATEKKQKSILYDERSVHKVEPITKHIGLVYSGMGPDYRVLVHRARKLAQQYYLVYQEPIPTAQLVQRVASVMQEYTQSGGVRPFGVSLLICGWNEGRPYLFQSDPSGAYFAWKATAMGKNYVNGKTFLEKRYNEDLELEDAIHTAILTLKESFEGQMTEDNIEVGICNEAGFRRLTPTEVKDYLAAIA
UniProt Q9UNM6: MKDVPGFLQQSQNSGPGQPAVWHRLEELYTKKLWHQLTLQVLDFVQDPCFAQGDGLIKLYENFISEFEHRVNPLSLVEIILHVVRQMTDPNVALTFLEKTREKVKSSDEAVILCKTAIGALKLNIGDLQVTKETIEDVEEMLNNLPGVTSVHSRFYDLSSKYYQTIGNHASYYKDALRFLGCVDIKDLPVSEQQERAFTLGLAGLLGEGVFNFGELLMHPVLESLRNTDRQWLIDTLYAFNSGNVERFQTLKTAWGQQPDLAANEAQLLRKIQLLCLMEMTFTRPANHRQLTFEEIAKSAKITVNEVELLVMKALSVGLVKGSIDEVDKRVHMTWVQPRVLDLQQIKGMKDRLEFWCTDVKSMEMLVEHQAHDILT
UniProt O95456: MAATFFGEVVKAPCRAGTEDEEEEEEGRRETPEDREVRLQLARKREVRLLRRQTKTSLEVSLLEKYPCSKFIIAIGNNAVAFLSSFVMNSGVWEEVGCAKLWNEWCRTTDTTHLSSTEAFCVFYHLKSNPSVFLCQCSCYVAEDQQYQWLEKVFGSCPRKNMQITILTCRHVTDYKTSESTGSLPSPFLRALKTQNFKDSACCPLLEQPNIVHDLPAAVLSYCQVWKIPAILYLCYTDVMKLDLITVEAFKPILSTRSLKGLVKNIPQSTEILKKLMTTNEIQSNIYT
UniProt P08575: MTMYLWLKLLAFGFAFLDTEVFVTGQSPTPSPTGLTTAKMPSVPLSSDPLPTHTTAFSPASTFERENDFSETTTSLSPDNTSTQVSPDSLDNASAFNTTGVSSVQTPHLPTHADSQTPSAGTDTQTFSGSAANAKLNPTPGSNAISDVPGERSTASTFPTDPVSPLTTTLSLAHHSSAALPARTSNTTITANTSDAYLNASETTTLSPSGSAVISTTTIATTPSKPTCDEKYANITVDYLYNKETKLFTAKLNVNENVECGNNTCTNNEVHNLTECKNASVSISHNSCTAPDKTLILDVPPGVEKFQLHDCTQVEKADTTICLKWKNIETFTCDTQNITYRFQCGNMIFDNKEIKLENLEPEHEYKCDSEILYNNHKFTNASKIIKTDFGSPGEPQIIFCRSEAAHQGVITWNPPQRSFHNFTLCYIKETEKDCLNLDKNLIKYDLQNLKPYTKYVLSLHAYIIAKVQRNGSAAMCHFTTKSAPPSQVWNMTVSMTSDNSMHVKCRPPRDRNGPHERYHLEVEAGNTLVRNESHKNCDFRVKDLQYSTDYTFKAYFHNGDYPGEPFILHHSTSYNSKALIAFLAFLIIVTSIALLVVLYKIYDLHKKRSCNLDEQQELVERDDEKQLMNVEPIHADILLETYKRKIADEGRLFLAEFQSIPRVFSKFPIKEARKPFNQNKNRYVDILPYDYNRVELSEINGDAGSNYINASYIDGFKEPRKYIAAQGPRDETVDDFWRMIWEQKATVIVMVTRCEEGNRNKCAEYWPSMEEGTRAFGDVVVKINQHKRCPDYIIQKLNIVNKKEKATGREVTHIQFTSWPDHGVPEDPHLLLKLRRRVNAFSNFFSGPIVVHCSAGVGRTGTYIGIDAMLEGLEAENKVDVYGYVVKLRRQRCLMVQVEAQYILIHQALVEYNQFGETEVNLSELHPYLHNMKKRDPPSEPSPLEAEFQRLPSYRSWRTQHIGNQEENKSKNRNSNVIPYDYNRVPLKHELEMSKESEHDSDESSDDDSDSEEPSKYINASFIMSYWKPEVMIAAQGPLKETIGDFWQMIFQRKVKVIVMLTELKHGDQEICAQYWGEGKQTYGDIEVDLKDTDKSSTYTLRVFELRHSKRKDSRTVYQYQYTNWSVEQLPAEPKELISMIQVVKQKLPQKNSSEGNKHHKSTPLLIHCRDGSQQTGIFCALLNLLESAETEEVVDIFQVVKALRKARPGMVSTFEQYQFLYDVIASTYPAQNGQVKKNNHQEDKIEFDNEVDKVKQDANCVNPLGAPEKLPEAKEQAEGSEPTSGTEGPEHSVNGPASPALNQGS
UniProt O75832: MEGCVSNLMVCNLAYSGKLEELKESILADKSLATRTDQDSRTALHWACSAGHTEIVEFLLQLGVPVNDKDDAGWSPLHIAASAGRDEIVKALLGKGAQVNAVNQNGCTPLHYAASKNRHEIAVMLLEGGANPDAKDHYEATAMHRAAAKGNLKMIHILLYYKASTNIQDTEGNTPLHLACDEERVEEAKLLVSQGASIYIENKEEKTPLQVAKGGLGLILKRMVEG
UniProt P25786: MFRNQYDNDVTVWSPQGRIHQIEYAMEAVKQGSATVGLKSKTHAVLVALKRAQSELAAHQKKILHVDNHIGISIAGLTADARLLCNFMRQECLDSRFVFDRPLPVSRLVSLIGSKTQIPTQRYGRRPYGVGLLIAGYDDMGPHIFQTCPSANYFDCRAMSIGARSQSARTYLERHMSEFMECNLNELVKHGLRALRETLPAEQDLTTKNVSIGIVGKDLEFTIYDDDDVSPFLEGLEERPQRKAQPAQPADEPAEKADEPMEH
UniProt P07602: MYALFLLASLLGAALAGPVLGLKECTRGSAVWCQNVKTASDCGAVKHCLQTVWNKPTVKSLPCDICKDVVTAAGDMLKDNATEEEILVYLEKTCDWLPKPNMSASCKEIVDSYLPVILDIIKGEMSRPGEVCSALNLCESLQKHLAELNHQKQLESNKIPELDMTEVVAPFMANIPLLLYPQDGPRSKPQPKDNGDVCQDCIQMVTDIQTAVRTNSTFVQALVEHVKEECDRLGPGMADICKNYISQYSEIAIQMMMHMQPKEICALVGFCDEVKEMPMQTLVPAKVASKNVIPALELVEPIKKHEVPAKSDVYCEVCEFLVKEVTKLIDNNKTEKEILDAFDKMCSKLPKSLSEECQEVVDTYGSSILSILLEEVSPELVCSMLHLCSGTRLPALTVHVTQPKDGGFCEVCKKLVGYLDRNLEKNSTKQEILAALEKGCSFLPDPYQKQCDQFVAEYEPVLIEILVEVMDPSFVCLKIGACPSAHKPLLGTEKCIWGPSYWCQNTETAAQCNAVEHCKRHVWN
UniProt P06454: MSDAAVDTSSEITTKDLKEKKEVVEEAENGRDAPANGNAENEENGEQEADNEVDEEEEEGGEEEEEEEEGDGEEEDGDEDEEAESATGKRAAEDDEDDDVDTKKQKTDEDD
UniProt P51665: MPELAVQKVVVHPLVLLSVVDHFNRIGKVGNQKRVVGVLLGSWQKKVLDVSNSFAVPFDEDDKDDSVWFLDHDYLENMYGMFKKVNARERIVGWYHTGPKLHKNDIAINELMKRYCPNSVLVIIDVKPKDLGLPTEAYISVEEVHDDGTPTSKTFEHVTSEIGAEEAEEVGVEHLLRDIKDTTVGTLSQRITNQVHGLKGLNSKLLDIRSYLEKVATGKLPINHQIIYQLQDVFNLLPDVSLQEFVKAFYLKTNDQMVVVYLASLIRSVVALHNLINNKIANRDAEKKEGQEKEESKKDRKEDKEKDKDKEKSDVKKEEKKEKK
UniProt P43686, whole entry, looked up: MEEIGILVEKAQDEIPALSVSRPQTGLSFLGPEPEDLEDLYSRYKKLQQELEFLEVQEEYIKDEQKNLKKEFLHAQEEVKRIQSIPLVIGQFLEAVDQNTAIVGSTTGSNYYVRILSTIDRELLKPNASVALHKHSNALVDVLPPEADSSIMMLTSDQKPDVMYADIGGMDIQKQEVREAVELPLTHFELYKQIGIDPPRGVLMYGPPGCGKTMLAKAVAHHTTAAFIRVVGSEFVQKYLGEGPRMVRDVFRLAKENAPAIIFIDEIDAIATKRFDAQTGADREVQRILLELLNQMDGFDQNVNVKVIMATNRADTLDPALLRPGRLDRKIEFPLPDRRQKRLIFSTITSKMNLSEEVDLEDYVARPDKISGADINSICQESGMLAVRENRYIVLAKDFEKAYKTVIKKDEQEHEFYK
UniProt Q96PU8: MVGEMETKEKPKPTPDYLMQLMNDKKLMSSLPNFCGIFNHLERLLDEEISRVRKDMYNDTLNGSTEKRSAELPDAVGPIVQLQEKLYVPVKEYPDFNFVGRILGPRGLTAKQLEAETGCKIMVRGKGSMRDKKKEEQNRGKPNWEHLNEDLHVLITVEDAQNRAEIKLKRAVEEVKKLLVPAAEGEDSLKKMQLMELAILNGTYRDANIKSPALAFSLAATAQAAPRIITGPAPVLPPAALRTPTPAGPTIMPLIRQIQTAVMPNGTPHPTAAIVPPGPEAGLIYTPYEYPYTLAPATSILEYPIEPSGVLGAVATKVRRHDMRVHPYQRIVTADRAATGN
UniProt Q9H3S7: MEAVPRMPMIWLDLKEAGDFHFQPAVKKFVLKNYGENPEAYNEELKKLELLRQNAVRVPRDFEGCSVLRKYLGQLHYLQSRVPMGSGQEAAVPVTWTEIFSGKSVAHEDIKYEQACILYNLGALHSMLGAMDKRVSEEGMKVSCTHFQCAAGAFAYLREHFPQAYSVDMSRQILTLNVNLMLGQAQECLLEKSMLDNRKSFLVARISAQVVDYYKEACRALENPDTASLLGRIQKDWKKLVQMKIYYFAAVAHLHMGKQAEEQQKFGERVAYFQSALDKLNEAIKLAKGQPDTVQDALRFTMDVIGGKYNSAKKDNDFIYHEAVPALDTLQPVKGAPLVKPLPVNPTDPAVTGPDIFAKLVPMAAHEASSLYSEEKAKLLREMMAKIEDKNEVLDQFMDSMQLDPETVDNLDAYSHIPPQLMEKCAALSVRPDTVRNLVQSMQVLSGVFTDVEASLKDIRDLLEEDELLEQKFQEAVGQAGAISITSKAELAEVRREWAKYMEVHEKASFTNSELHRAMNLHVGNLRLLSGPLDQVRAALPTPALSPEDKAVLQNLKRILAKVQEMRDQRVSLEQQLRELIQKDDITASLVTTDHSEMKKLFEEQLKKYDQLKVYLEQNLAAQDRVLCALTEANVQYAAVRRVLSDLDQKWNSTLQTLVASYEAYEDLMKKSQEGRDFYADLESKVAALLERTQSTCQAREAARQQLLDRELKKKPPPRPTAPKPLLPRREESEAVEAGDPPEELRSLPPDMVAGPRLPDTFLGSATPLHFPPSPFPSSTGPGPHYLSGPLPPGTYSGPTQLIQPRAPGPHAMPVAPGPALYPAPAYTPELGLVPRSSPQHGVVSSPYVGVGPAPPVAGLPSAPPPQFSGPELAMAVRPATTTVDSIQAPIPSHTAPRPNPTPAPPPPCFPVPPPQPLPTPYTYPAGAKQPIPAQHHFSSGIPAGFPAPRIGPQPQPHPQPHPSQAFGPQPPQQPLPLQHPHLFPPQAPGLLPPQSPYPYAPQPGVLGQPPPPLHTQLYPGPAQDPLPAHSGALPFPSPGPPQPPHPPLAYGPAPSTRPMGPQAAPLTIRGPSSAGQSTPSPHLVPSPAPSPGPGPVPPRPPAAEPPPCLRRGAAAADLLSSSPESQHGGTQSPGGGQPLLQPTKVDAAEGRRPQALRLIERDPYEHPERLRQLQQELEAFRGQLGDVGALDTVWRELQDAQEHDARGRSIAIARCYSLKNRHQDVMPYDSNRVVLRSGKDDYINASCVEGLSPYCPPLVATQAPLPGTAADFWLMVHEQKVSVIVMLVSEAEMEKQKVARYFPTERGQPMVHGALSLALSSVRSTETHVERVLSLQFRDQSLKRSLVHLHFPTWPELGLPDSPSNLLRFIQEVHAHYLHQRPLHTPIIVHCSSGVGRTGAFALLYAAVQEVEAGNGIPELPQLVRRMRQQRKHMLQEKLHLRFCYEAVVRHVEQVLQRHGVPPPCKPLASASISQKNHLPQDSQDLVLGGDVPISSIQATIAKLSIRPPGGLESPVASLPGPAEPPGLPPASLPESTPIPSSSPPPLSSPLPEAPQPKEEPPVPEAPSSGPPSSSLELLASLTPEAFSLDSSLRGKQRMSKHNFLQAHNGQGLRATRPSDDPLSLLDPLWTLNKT
UniProt Q9Y3E5: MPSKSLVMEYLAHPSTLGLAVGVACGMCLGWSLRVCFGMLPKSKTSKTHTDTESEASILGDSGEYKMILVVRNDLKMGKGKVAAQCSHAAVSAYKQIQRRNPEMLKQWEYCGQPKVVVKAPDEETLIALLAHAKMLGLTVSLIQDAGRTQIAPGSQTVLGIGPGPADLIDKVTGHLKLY

Legend:
Assay in all cases: log2 fold change, soluble protein after heating vs DMSO (PISA); higher = thermal stabilisation; K562 cells, 10 uM, 30 min; active = over 0.2 and 3.5 SD of the protein, either way, in both replicates (recomputed)
bafetinib = compound: Cc1ccc(NC(=O)c2ccc(CN3CC[C@H](N(C)C)C3)c(C(F)(F)F)c2)cc1Nc1nccc(-c2cncnc2)n1 [bafetinib]
Outline: (§1)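 K562 cells at 2×10^6 cells/mL were treated with 10 μM compound for 30 min. Aliquots were heated for 3 min across 48°C-58°C, pooled, and extracted in PBS with 0.5% NP-40 at 4°C; soluble protein was the supernatant after 21,000xg for 90 min. Soluble protein was quantified by TMTpro 16plex LC-MS/MS with channel sums equalised, and reported as log2 fold change in thermal stability against DMSO controls, with values from duplicates.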

[1] = compound: Cc1cccc(CC(=O)N2CCc3c2ccc(-c2cn(C)c4ncnc(N)c24)c3F)n1
Outline: as §1

nilotinib = compound: Cc1cn(-c2cc(NC(=O)c3ccc(C)c(Nc4nccc(-c5cccnc5)n4)c3)cc(C(F)(F)F)c2)cn1 [nilotinib]
Outline: as §1

[2] = compound: Cc1nc(Nc2n[nH]c3c2CN(C(=O)N[C@H](CN(C)C)c2ccccc2)C3(C)C)c2sccc2n1
Outline: as §1

dasatinib = compound: Cc1nc(Nc2ncc(C(=O)Nc3c(C)cccc3Cl)s2)cc(N2CCN(CCO)CC2)n1 [dasatinib]
Outline: as §1

[3] = compound: Cc1ncc(-c2ccnc(Nc3ccc(S(C)(=O)=O)cc3)n2)n1C(C)C
Outline: as §1

[4] = compound: Cn1cc(-c2ccc3c(c2)CCN3C(=O)Cc2cccc(C(F)(F)F)c2)c2c(N)ncnc21
Outline: as §1

[5] = compound: Cn1cc(-c2ccc3nnc(C(F)(F)c4ccc5ncccc5c4)n3n2)cn1
Outline: as §1

tipifarnib = compound: Cn1cncc1[C@@](N)(c1ccc(Cl)cc1)c1ccc2c(c1)c(-c1cccc(Cl)c1)cc(=O)n2C [tipifarnib]
Outline: as §1

mubritinib = compound: FC(F)(F)c1ccc(/C=C/c2nc(COc3ccc(CCCCn4ccnn4)cc3)co2)cc1 [mubritinib]
Outline: as §1

Measured: log2 fold change

PSME4 (UniProt Q14997)
inactive: bafetinib 0.069 | [1] 0.141 | nilotinib -0.057 | [2] 0.016 | dasatinib -0.084 | [3] -0.098 | [4] 0.015 | [5] -0.006 | tipifarnib -0.036 | mubritinib 0.052

PZP (UniProt P20742)
inactive: bafetinib -0.021 | [1] 0.081 | nilotinib 0.059 | [2] 0.084 | dasatinib 0.052 | [3] 0.552 | [4] 0.238 | [5] -0.156 | tipifarnib -0.009 | mubritinib -0.026

PSMG3 (UniProt Q9BT73)
inactive: bafetinib -0.075 | [1] -0.033 | nilotinib -0.007 | [2] 0.007 | dasatinib 0.031 | [3] 0.016 | [4] -0.01 | [5] 0.033 | tipifarnib 0.034 | mubritinib 0.046

PURB (UniProt Q96QR8)
inactive: bafetinib 0.123 | [1] 0.079 | nilotinib 0.01 | [2] 0.135 | dasatinib 0.355 | [3] 0.01 | [4] -0.261 | [5] -0.141 | tipifarnib 0.221 | mubritinib -0.124

PSMA2 (UniProt P25787)
inactive: bafetinib 0.04 | [1] 0.024 | nilotinib 0.016 | [2] 0.03 | dasatinib 0.068 | [3] -0.017 | [4] -0.047 | [5] -0.026 | tipifarnib 0.03 | mubritinib -0.003

PSMD13 (UniProt Q9UNM6)
inactive: bafetinib 0.126 | [1] 0.003 | nilotinib -0.002 | [2] 0.082 | dasatinib 0.023 | [3] -0.018 | [4] -0.114 | [5] -0.008 | tipifarnib 0.095 | mubritinib -0.019

PSMG1 (UniProt O95456)
inactive: bafetinib -0.049 | [1] 0.034 | nilotinib -0.016 | [2] 0.004 | dasatinib 0.054 | [3] -0.003 | [4] -0.016 | [5] 0.024 | tipifarnib 0.012 | mubritinib -0.006

PTER (UniProt Q96BW5)
inactive: bafetinib -0.024 | [1] -0.055 | nilotinib -0.014 | [2] 0.016 | dasatinib -0.001 | [3] -0.01 | [4] 0.024 | [5] 0.074 | tipifarnib -0.013 | mubritinib 0.003

PTPRC (UniProt P08575)
inactive: bafetinib 0.002 | [1] -0.011 | nilotinib 0.056 | [2] -0.044 | dasatinib 0 | [3] 0 | [4] 0.068 | [5] 0.017 | tipifarnib 0.015 | mubritinib 0.045

PTBP1 (UniProt P26599)
inactive: bafetinib 0.047 | [1] 0.127 | nilotinib -0.079 | [2] -0.121 | dasatinib -0.078 | [3] -0.048 | [4] 0.009 | [5] 0.009 | tipifarnib -0.05 | mubritinib -0.018

QDPR (UniProt P09417)
inactive: bafetinib -0.047 | [1] 0.011 | nilotinib -0.006 | [2] 0.018 | dasatinib 0.088 | [3] -0.014 | [4] -0.023 | [5] 0.018 | tipifarnib 0.022 | mubritinib 0.056

PSMD10 (UniProt O75832)
inactive: bafetinib 0.026 | [1] 0.029 | nilotinib -0.013 | [2] -0.019 | dasatinib -0.094 | [3] 0.029 | [4] -0.015 | [5] 0.01 | tipifarnib -0.054 | mubritinib 0.047

PTGS1 isoform 6 (UniProt P23219)
inactive: bafetinib -0.007 | [1] -0.041 | nilotinib -0.025 | [2] 0.047 | dasatinib -0.02 | [3] -0.026 | [4] 0.029 | [5] 0.058 | tipifarnib 0.034 | mubritinib -0.021

PSMA1 isoform 2 (UniProt P25786)
inactive: bafetinib 0.043 | [1] -0.012 | nilotinib 0.006 | [2] 0.057 | dasatinib 0.073 | [3] -0.012 | [4] -0.066 | [5] -0.033 | tipifarnib 0.071 | mubritinib -0.009

PYM1 (UniProt Q9BRP8)
inactive: bafetinib 0.103 | [1] -0.05 | nilotinib 0.033 | [2] 0.101 | dasatinib 0.05 | [3] 0.004 | [4] -0.092 | [5] 0.014 | tipifarnib 0.058 | mubritinib -0.005

PSAP isoform 3 (UniProt P07602)
inactive: bafetinib -0.059 | [1] -0.091 | nilotinib 0.022 | [2] -0.01 | dasatinib 0.068 | [3] 0.006 | [4] 0.002 | [5] 0.035 | tipifarnib 0.028 | mubritinib 0.007

PTMA (UniProt P06454)
inactive: bafetinib -0.076 | [1] -0.047 | nilotinib 0.023 | [2] 0.001 | dasatinib -0.01 | [3] -0.031 | [4] 0.177 | [5] -0.147 | tipifarnib -0.02 | mubritinib 0.109

PSMD7 (UniProt P51665)
inactive: bafetinib 0.075 | [1] 0.009 | nilotinib 0.014 | [2] 0.065 | dasatinib 0.054 | [3] -0.033 | [4] -0.116 | [5] -0.01 | tipifarnib 0.079 | mubritinib 0.019

PSMC4 (UniProt P43686)
inactive: bafetinib 0.087 | [1] 0 | nilotinib -0.013 | [2] 0.05 | dasatinib 0.052 | [3] -0.019 | [4] -0.128 | [5] -0.037 | tipifarnib 0.117 | mubritinib -0.012

Retrieved one by one from the entries so far (2):
PSAP isoform 3 (UniProt P07602)
inactive: bafetinib -0.059 | [1] -0.091 | nilotinib 0.022 | [2] -0.01 | dasatinib 0.068 | [3] 0.006 | [4] 0.002 | [5] 0.035 | tipifarnib 0.028 | mubritinib 0.007

PTMA (UniProt P06454)
inactive: bafetinib -0.076 | [1] -0.047 | nilotinib 0.023 | [2] 0.001 | dasatinib -0.01 | [3] -0.031 | [4] 0.177 | [5] -0.147 | tipifarnib -0.02 | mubritinib 0.109

Continuation.

QKI (UniProt Q96PU8)
inactive: bafetinib -0.001 | [1] 0.058 | nilotinib -0.015 | [2] -0.105 | dasatinib -0.029 | [3] -0.093 | [4] -0.007 | [5] -0.036 | tipifarnib -0.015 | mubritinib 0.003

PTPN23 (UniProt Q9H3S7)
inactive: bafetinib 0.028 | [1] 0.053 | nilotinib -0.07 | [2] -0.096 | dasatinib -0.199 | [3] 0.059 | [4] -0.016 | [5] 0.02 | tipifarnib -0.069 | mubritinib 0.034

PTRH2 (UniProt Q9Y3E5)
inactive: bafetinib -0.022 | [1] 0.017 | nilotinib 0.039 | [2] -0.011 | dasatinib -0.004 | [3] 0.046 | [4] 0.044 | [5] -0.019 | tipifarnib 0.042 | mubritinib -0.009

PSMC2 (UniProt P35998)
inactive: bafetinib 0.081 | [1] 0.029 | nilotinib -0.019 | [2] 0.044 | dasatinib 0.034 | [3] -0.018 | [4] -0.126 | [5] -0.013 | tipifarnib 0.113 | mubritinib -0.031

PSAT1 (UniProt Q9Y617)
inactive: bafetinib -0.042 | [1] -0.015 | nilotinib 0.03 | [2] 0.004 | dasatinib 0.058 | [3] -0.004 | [4] -0.006 | [5] 0.007 | tipifarnib -0.014 | mubritinib 0.027

PSMC5 (UniProt P62195)
inactive: bafetinib 0.078 | [1] 0.035 | nilotinib -0.041 | [2] 0.035 | dasatinib 0.033 | [3] -0.014 | [4] -0.113 | [5] -0.006 | tipifarnib 0.09 | mubritinib -0.014

PTCD3 (UniProt Q96EY7)
inactive: bafetinib 0.148 | [1] 0.147 | nilotinib -0.089 | [2] 0.06 | dasatinib -0.01 | [3] 0.016 | [4] -0.003 | [5] 0.018 | tipifarnib -0.038 | mubritinib 0.119

PTTG1 (UniProt O95997)
inactive: bafetinib 0.062 | [1] 0.021 | nilotinib -0.025 | [2] -0.011 | dasatinib 0.031 | [3] -0.116 | [4] 0.024 | [5] -0.066 | tipifarnib -0.013 | mubritinib 0.033

PSMB2 (UniProt P49721)
inactive: bafetinib 0.1 | [1] 0.01 | nilotinib 0.026 | [2] 0.058 | dasatinib 0.107 | [3] -0.034 | [4] 0.006 | [5] 0.037 | tipifarnib -0.001 | mubritinib -0.001

PTGFRN (UniProt Q9P2B2)
inactive: bafetinib -0.061 | [1] -0.04 | nilotinib 0.087 | [2] 0.024 | dasatinib 0.046 | [3] 0.048 | [4] 0.038 | [5] 0.009 | tipifarnib 0.032 | mubritinib 0.065

PSMB4 (UniProt P28070)
inactive: bafetinib 0.051 | [1] -0.052 | nilotinib 0 | [2] 0.063 | dasatinib 0.076 | [3] -0.015 | [4] -0.03 | [5] 0.014 | tipifarnib 0.047 | mubritinib 0.009
